Data reported in PubChem BioAssay AID330 (DTP/NCI, 2004).
The list shows only some results of the screen, not a fair sample: it gathers tests that were run many times, whatever their T/C, doses with no T/C, and many T/C values between a quarter and a half above the control. Other doses and runs of a compound stand elsewhere. T/C: endpoint of the treated group in % of that of the vehicle group. Some doses have a count of surviving animals in place of a T/C: the source files T/C as zero there, which appears to mark a toxic dose or a test without result, not a measured value. Some survivor counts are full or nearly so, which does not show that the dose was tolerated: the source hardly ever lists a survival T/C far under the control, and the zero likely stands for such cases as well. Survivors were counted at the toxicity check, usually on the fifth day, unless a day is given; later deaths do not show. Schedule codes are those of the source, read here as Q, the interval in days (D) or hours (H), X, the number of doses. Some entries were tested several times; the values are given in rising order. Where survival is the endpoint, the PubChem record calls one and a half times the control and up active, and a quarter to a half above the control has no call in these data; cut-offs in other NCI protocols can differ. Some T/C values are followed by the survivors on the day toxicity was checked, most often the fifth; without a count, all were alive then.

System: P388 leukemia ip, CD2F1 mice, survival T/C
Assay: NCI In Vivo Anticancer Drug Screen. Data for tumor model P388 Leukemia (intraperitoneal) in CD2F1 (CDF1) mice
Settings: T/C endpoint: median survival time, higher T/C = longer survival
[1] = dose: 200.0 mg/kg/injection, schedule: Q01DX009 (ip), vehicle: Klucel (hydroxypropylcellulose) (HPC)
[2] = dose: 200.0 mg/kg/injection, schedule: Q01DX009 (ip), vehicle: saline with Tween-80
[3] = dose: 100.0 mg/kg/injection, schedule: Q01DX009 (ip), vehicle: saline
[4] = dose: 200.0 mg/kg/injection, schedule: Q01DX009 (ip), vehicle: saline

Cc1nc2ccccc2nc1CBr
T/C (dose: 6.25 mg/kg/injection, schedule: Q01DX009 (ip), vehicle: saline with Tween-80): 125 % of control
T/C (dose: 12.5 mg/kg/injection, schedule: Q01DX009 (ip), vehicle: saline with Tween-80): 125 and 130 % of control
survivor count (dose: 25.0 mg/kg/injection, schedule: Q01DX009 (ip), vehicle: saline with Tween-80): 2 of 6
survivor count (dose: 50.0 mg/kg/injection, schedule: Q01DX009 (ip), vehicle: saline with Tween-80): 1 of 6

CN1CCN(CC(=O)N/N=C/c2ccc([N+](=O)[O-])o2)CC1
T/C [1]: 125 % of control [4 of 6 alive]

O=C(O)C(Cc1ccccc1)N1C(=O)C=CC1=O (stereo not drawn)
survivor count (dose: 80.0 mg/kg/injection, schedule: Q01DX009 (ip), vehicle: saline with Tween-80): 2 of 6
survivor count (dose: 160.0 mg/kg/injection, schedule: Q01DX009 (ip), vehicle: saline with Tween-80): 0 of 6
survivor count [1]: 0 of 6

CNC(=O)SC1=NS(=O)(=O)c2ccc(Cl)cc2N1
survivor count (dose: 240.0 mg/kg/injection, schedule: Q01DX005 (ip), vehicle: Klucel (hydroxypropylcellulose) (HPC)): 0 of 6

NC(=S)N/N=C\C12CC3CC(CC(C3)C1)C2
survivor count [2]: 1 of 6

FC(F)(F)c1c[nH]cc1C(F)(F)F
survivor count (dose: 100.0 mg/kg/injection, schedule: Q04DX002 (ip), vehicle: Klucel (hydroxypropylcellulose) (HPC)): 6 of 6
survivor count (dose: 200.0 mg/kg/injection, schedule: Q04DX002 (ip), vehicle: Klucel (hydroxypropylcellulose) (HPC)): 0 of 6
survivor count (dose: 400.0 mg/kg/injection, schedule: Q04DX002 (ip), vehicle: Klucel (hydroxypropylcellulose) (HPC)): 0 of 6

CN(C)CCCN1c2ccccc2Sc2ccc(F)cc21
survivor count [3]: 1 of 6
survivor count [4]: 0 of 6

N#CC(c1ccc2c(c1)OCO2)N1CCCC1 (stereo not drawn)
survivor count (dose: 50.0 mg/kg/injection, schedule: Q01DX001 (ip), vehicle: Klucel (hydroxypropylcellulose) (HPC)): 2 of 6
survivor count (dose: 200.0 mg/kg/injection, schedule: Q01DX001 (ip), vehicle: Klucel (hydroxypropylcellulose) (HPC)): 2 of 6

CCC1CCC2CCCCN2CO1 (stereo not drawn)
survivor count (dose: 200.0 mg/kg/injection, schedule: Q01DX005 (ip), vehicle: saline): 2 of 6

Cc1ccc2ccc3ccc(CBr)nc3c2n1
survivor count (dose: 25.0 micromoles/kg, schedule: Q01DX005 (ip), vehicle: other): 1 of 6

COC1/C=C/OC2(C)Oc3c(C)c(O)c4c(O)c(c(/C=N/N5C(C)CN(Cc6ccc(C(C)(C)C)cc6)CC5C)c(O)c4c3C2=O)NC(=O)/C(C)=C\C=C\C(C)C(O)C(C)C(O)C(C)C(OC(C)=O)C1C (stereo not drawn)
T/C (dose: 100.0 mg/kg/injection, schedule: Q01DX009 (ip), vehicle: saline with Tween-80): 134 % of control
survivor count [2]: 6 of 6

Cc1cc2nc(CC(=O)c3ccncc3)c(=O)[nH]c2cc1C
survivor count (dose: 240.0 mg/kg/injection, schedule: Q01DX005 (ip), vehicle: saline with Tween-80): 1 of 6

COc1cccc(OC)c1OCCN
survivor count [4]: 0 of 6

CC(=O)[O][Hg][O]C(C)=O
survivor count (dose: 2.5 mg/kg/injection, schedule: Q01DX009 (ip), vehicle: saline with Tween-80): 4 of 6
survivor count (dose: 5.0 mg/kg/injection, schedule: Q01DX009 (ip), vehicle: saline with Tween-80): 0 of 6

COc1cc2c(c(OC)c1OC)-c1ccc(OC)c(=O)cc1C(NC(=O)CO)CC2 (stereo not drawn)
T/C (dose: 0.31 mg/kg/injection, schedule: Q01DX009 (ip), vehicle: Klucel (hydroxypropylcellulose) (HPC)): 136 and 144 % of control
survivor count (dose: 1.25 mg/kg/injection, schedule: Q01DX009 (ip), vehicle: Klucel (hydroxypropylcellulose) (HPC)): 5 of 6 and 6 of 6
survivor count (dose: 2.5 mg/kg/injection, schedule: Q01DX009 (ip), vehicle: Klucel (hydroxypropylcellulose) (HPC)): 3 of 6
survivor count (dose: 5.0 mg/kg/injection, schedule: Q01DX009 (ip), vehicle: Klucel (hydroxypropylcellulose) (HPC)): 0 of 6
survivor count (dose: 10.0 mg/kg/injection, schedule: Q01DX009 (ip), vehicle: Klucel (hydroxypropylcellulose) (HPC)): 0 of 6
survivor count (dose: 20.0 mg/kg/injection, schedule: Q01DX009 (ip), vehicle: Klucel (hydroxypropylcellulose) (HPC)): 0 of 6
survivor count (dose: 40.0 mg/kg/injection, schedule: Q01DX009 (ip), vehicle: Klucel (hydroxypropylcellulose) (HPC)): 0 of 6

N#Cc1ccc(NN=NCCSCCO)cc1
T/C (dose: 200.0 mg/kg/injection, schedule: Q01DX009 (ip), vehicle: distilled water + alcohol): 138 % of control [5 of 6 alive]

CCOC(=O)Nc1cc2c(c(N)n1)N=C(c1ccc(Cl)cc1)CN2
T/C (dose: 6.0 mg/kg/injection, schedule: Q01DX009 (ip), vehicle: Klucel (hydroxypropylcellulose) (HPC)): 125 % of control
T/C (dose: 6.25 mg/kg/injection, schedule: Q01DX009 (ip), vehicle: Klucel (hydroxypropylcellulose) (HPC)): 138 % of control
T/C (dose: 12.5 mg/kg/injection, schedule: Q04DX003 (ip), vehicle: Klucel (hydroxypropylcellulose) (HPC)): 137 % of control
survivor count (dose: 25.0 mg/kg/injection, schedule: Q01DX009 (ip), vehicle: Klucel (hydroxypropylcellulose) (HPC)): 5 of 6
T/C (dose: 25.0 mg/kg/injection, schedule: Q04DX003 (ip), vehicle: Klucel (hydroxypropylcellulose) (HPC)): 137 % of control
survivor count (dose: 50.0 mg/kg/injection, schedule: Q01DX009 (ip), vehicle: Klucel (hydroxypropylcellulose) (HPC)): 3 of 6
survivor count (dose: 100.0 mg/kg/injection, schedule: Q04DX003 (ip), vehicle: Klucel (hydroxypropylcellulose) (HPC)): 6 of 6

CCOP(=O)(N1CC1(C)C)N1CC1(C)C (stereo not drawn)
T/C (dose: 10.0 mg/kg/injection, schedule: Q01DX009 (ip), vehicle: saline): 135 % of control
T/C (dose: 80.0 mg/kg/injection, schedule: Q01DX009 (ip), vehicle: saline): 145 % of control
survivor count (dose: 120.0 mg/kg/injection, schedule: Q01DX009 (ip), vehicle: saline): 6 of 6

COC(=N)CCSSCCC(=N)OC
survivor count (dose: 200.0 mg/kg/injection, schedule: Q01DX009 (ip), vehicle: suspension in saline): 0 of 6
survivor count (dose: 400.0 mg/kg/injection, schedule: Q01DX009 (ip), vehicle: suspension in saline): 0 of 6

O=C1C[C@@H]2OCC=C3C[N+]4([O-])CC[C@]56c7ccccc7N1[C@H]5[C@H]2[C@H]3C[C@@H]64 (stereo partly drawn)
survivor count (dose: 50.0 mg/kg/injection, schedule: Q01DX005 (ip), vehicle: saline): 0 of 6

COC(=O)C1c2cc3c(c(O)c2C(O)CC1(C)O)C(=O)c1c(O)cc2c(c1C3=O)OC1OC2(C)C(O)C(N(C)C)C1O (stereo not drawn)
survivor count (dose: 400.0 mg/kg/injection, schedule: Q01DX010 (ip), vehicle: saline): 0 of 6

CCOC(=O)c1ccc(NC(=O)N(C2CCCCC2)C2CCCCC2)cc1
survivor count (dose: 30.0 mg/kg/injection, schedule: Q01DX005 (ip), vehicle: Klucel (hydroxypropylcellulose) (HPC)): 6 of 6
survivor count (dose: 60.0 mg/kg/injection, schedule: Q01DX005 (ip), vehicle: Klucel (hydroxypropylcellulose) (HPC)): 6 of 6
survivor count (dose: 120.0 mg/kg/injection, schedule: Q01DX005 (ip), vehicle: Klucel (hydroxypropylcellulose) (HPC)): 5 of 6 and 6 of 6

COc1ccc(C2c3cc4c(cc3OC(C)(OC)C2C)OCO4)c(OC)c1OC (stereo not drawn)
survivor count (dose: 400.0 mg/kg/injection, schedule: Q01DX001 (ip), vehicle: saline with Tween-80): 6 of 6

CC[C@@]1(O)C[C@H](OC2CC(N(C)C)C(OC3CC4OC5CC(=O)C(C)OC5OC4C(C)O3)C(C)O2)c2c(cc3c(c2O)C(=O)c2c(O)cccc2C3=O)[C@H]1C(=O)OC (stereo partly drawn)
T/C (dose: 2.0 mg/kg/injection, schedule: Q01DX009 (ip), vehicle: water): 132 % of control
survivor count (dose: 8.0 mg/kg/injection, schedule: Q01DX009 (ip), vehicle: water): 4 of 6

Cc1ccc2c(Nc3ccc(NS(C)(=O)=O)cc3C)c3ccccc3nc2c1
T/C (dose: 3.12 mg/kg/injection, schedule: Q01DX009 (ip), vehicle: saline): 131 % of control
T/C (dose: 6.25 mg/kg/injection, schedule: Q01DX009 (ip), vehicle: saline): 134 and 147 % of control
survivor count (dose: 50.0 mg/kg/injection, schedule: Q01DX009 (ip), vehicle: saline): 6 of 6
survivor count [3]: 5 of 6
survivor count [4]: 2 of 6
